Measurements reported in PubChem BioAssay AID652243 (Drosophila RNAi Screening Center, 2013).
Test: 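Fly genes required for human androgen receptor driven transcription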 (primary screen). System: Drosophila S2R+ cells. Reagents: long dsRNA against Drosophila genes. Duration: 72 h (48 h, then 24 h hormone). Challenge: synthetic androgen R1881 at 10 nM for 24 h. Detection: 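Firefly light from an androgen-responsive reporter and Renilla control light per well, raw and unnormalised, for each of two replicates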. Direction: firefly reporter light: higher = more light from androgen-responsive reporter; Renilla control light: higher = more constitutive control signal (cell number, transfection). Active means: 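Across duplicate plates, a knock-down whose log firefly/Renilla ratio shifted a set fold down or up from the GFP/LacZ control mean was a hit; the downward cut appears as both 1.5 and 3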. Meaning of the calls: active = hit: reporter lowered or raised; inactive = no hit.
The deposit covers about 24,000 reagents; this is a random part of those that have a named target and a result. Of all reagents, 246 (1%) are marked active. 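Plates not normalised; calls are printed but the firefly/Renilla ratio behind them is not deposited; fold cut for lowering reported inconsistently.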 Raw values vary from plate to plate and are shown uncorrected. The numbers tell different reagents against one gene apart. A plus sign joins genes that one reagent is predicted to hit. Not stated in the record: the amount of reagent.

How did the screen score CG14762 #1?
firefly reporter light, replicate 1: 1.96e5; firefly reporter light, replicate 2: 2.16e5; Renilla control light, replicate 1: 2.62e5; Renilla control light, replicate 2: 1.83e5; activity call: inactive

How did the screen score CG14762 #2?
firefly reporter light, replicate 1: 3.04e5; firefly reporter light, replicate 2: 4.78e5; Renilla control light, replicate 1: 1.79e6; Renilla control light, replicate 2: 1.58e6; activity call: inactive

With Lcp3 (Larval cuticle protein 3) #1, how do the results read?
firefly reporter light, replicate 1: 4.22e5; firefly reporter light, replicate 2: 3.20e5; Renilla control light, replicate 1: 2.34e6; Renilla control light, replicate 2: 1.71e6; activity call: inactive

For Lcp3 (Larval cuticle protein 3) #2, what does the deposit list?
firefly reporter light, replicate 1: 5.53e5; firefly reporter light, replicate 2: 4.76e5; Renilla control light, replicate 1: 5.60e5; Renilla control light, replicate 2: 6.18e5; activity call: inactive

What did the screen give for Tengl1 (Testis EndoG-Like 1)?
firefly reporter light, replicate 1: 1.33e5; firefly reporter light, replicate 2: 1.37e5; Renilla control light, replicate 1: 9.77e5; Renilla control light, replicate 2: 7.59e5; activity call: inactive

What did the screen give for sgg (shaggy) #1?
firefly reporter light, replicate 1: 5.82e5; firefly reporter light, replicate 2: 6.15e5; Renilla control light, replicate 1: 7.45e5; Renilla control light, replicate 2: 6.57e5; activity call: inactive

What is on record for sgg (shaggy) #2?
firefly reporter light, replicate 1: 8.26e5; firefly reporter light, replicate 2: 6.29e5; Renilla control light, replicate 1: 7.27e5; Renilla control light, replicate 2: 5.75e5; activity call: inactive

What did the screen give for sgg (shaggy) #3?
firefly reporter light, replicate 1: 1.27e5; firefly reporter light, replicate 2: 1.32e5; Renilla control light, replicate 1: 3.48e6; Renilla control light, replicate 2: 3.75e6; activity call: active

For sgg (shaggy) #4, how do the results read?
firefly reporter light, replicate 1: 3.29e5; firefly reporter light, replicate 2: 2.71e5; Renilla control light, replicate 1: 8.89e5; Renilla control light, replicate 2: 4.21e5; activity call: active

What did the screen give for sgg (shaggy) #5?
activity call: inactive

For CG33012 #1, what does the deposit list?
firefly reporter light, replicate 1: 2.64e5; firefly reporter light, replicate 2: 2.00e5; Renilla control light, replicate 1: 1.52e6; Renilla control light, replicate 2: 1.46e6; activity call: inactive

What is on record for CG33012 #2?
firefly reporter light, replicate 1: 2.88e5; firefly reporter light, replicate 2: 2.61e5; Renilla control light, replicate 1: 2.14e6; Renilla control light, replicate 2: 1.94e6; activity call: inactive

With NKAIN (Na,K-ATPase Interacting) #1, what was measured?
firefly reporter light, replicate 1: 6.42e5; firefly reporter light, replicate 2: 7.61e5; Renilla control light, replicate 1: 1.01e6; Renilla control light, replicate 2: 1.58e6; activity call: inactive

How did the screen score NKAIN (Na,K-ATPase Interacting) #2?
firefly reporter light, replicate 1: 3.30e5; firefly reporter light, replicate 2: 8.28e5; Renilla control light, replicate 1: 1.20e6; Renilla control light, replicate 2: 1.59e6; activity call: inactive

With NKAIN (Na,K-ATPase Interacting) #3, what does the deposit list?
firefly reporter light, replicate 1: 9.13e5; firefly reporter light, replicate 2: 9.25e5; Renilla control light, replicate 1: 1.13e6; Renilla control light, replicate 2: 1.40e6; activity call: inactive

With CG33255 (retired record) + CR42842 + hpRNA:CR32205 + 1 more, what does the deposit list?
firefly reporter light, replicate 1: 1.54e5; firefly reporter light, replicate 2: 1.88e5; Renilla control light, replicate 1: 2.10e5; Renilla control light, replicate 2: 1.84e5; activity call: inactive

With galectin, how do the results read?
firefly reporter light, replicate 1: 1.23e5; firefly reporter light, replicate 2: 71919; Renilla control light, replicate 1: 4.70e5; Renilla control light, replicate 2: 6.78e5; activity call: inactive

What is on record for ND-B15 (NADH dehydrogenase (ubiquinone) B15 subunit)?
firefly reporter light, replicate 1: 1.29e5; firefly reporter light, replicate 2: 1.49e5; Renilla control light, replicate 1: 2.07e6; Renilla control light, replicate 2: 2.07e6; activity call: inactive

How did the screen score Tpl94D (Transition protein-like 94D)?
firefly reporter light, replicate 1: 76614; firefly reporter light, replicate 2: 69495; Renilla control light, replicate 1: 1.10e5; Renilla control light, replicate 2: 1.26e5; activity call: inactive

For CG33136 #1, what was measured?
firefly reporter light, replicate 1: 1.24e5; firefly reporter light, replicate 2: 1.02e5; Renilla control light, replicate 1: 2.38e5; Renilla control light, replicate 2: 3.72e5; activity call: inactive

What did the screen give for CG33136 #2?
firefly reporter light, replicate 1: 4.48e5; firefly reporter light, replicate 2: 4.29e5; Renilla control light, replicate 1: 8.50e5; Renilla control light, replicate 2: 9.78e5; activity call: inactive

For CG13613, how do the results read?
firefly reporter light, replicate 1: 1.47e5; firefly reporter light, replicate 2: 1.99e5; Renilla control light, replicate 1: 2.07e6; Renilla control light, replicate 2: 2.00e6; activity call: inactive

How did the screen score CG16790?
firefly reporter light, replicate 1: 1.10e5; firefly reporter light, replicate 2: 1.43e5; Renilla control light, replicate 1: 1.49e6; Renilla control light, replicate 2: 1.13e6; activity call: inactive

With PIG-U (Phosphatidylinositol glycan anchor biosynthesis class U) #1, how do the results read?
firefly reporter light, replicate 1: 5.02e5; firefly reporter light, replicate 2: 7.76e5; Renilla control light, replicate 1: 1.21e6; Renilla control light, replicate 2: 1.35e6; activity call: inactive

With PIG-U (Phosphatidylinositol glycan anchor biosynthesis class U) #2, how do the results read?
firefly reporter light, replicate 1: 2.50e5; firefly reporter light, replicate 2: 2.67e5; Renilla control light, replicate 1: 9.75e5; Renilla control light, replicate 2: 8.31e5; activity call: inactive

Which result is listed for CG14984 #1?
firefly reporter light, replicate 1: 1.38e5; firefly reporter light, replicate 2: 84863; Renilla control light, replicate 1: 1.57e6; Renilla control light, replicate 2: 1.20e6; activity call: inactive

How did the screen score CG14984 #2?
firefly reporter light, replicate 1: 3.16e5; firefly reporter light, replicate 2: 2.56e5; Renilla control light, replicate 1: 5.61e5; Renilla control light, replicate 2: 7.34e5; activity call: inactive

An excerpt from above, reduced to “Renilla control light, replicate 2”:
CG33012 #1 = 1.46e6
CG33012 #2 = 1.94e6
NKAIN (Na,K-ATPase Interacting) #1 = 1.58e6
